# Screening data

The results are deposited in PubChem (AID1159506; NCATS, 2015).

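Genome-wide siRNA knockdown in TC32 Ewing sarcoma cells, comparing luciferase light from an NR0B1-promoter reporter with a CMV-promoter reporter 48 hours after transfection.
Each siRNA was applied at 20 nM.
A z-score of the log NR0B1-over-CMV signal, less the median of siRNAs with the same seed; more negative means a stronger specific loss of the NR0B1 reporter.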

This is part of the screen; most of the strongest results are not listed here.
Sequences are the guide (antisense) strand, without overhang.

For AUGUUUUUCCUUGAGCCUG against DEFA1 the result was seed-corrected z-score -1.24. AAUAUCUUCAGGGCAGUUC against ERO1B gave seed-corrected z-score 1.048. With UGAGGUCACAAGAGGACUC against LILRB4 the assay gave seed-corrected z-score -0.7397. UUGCGGUUCACUUCCUUUG against NREP read seed-corrected z-score -1.142. For ACAGUUCCAAGAGAUUAUC against FAM118B the result was seed-corrected z-score 0.3402. UUGAAGUCCUCGUUGAAGC against P2RY2 gave seed-corrected z-score 1.039. ACACCGUUCAAACCAUUGC against UNKL gave seed-corrected z-score 0.02089.

UAACGGUUGUAAGGAAGCC against SMIM15 read seed-corrected z-score 0.6354. For UAUUUACCAAGAGAUCGAG against RPL7P9 the result was seed-corrected z-score -1.82. Result for UAGAUAAUCAGGCCUGACA against SOD2 was seed-corrected z-score 0.3477. Result for UCUGGUAAUAAUAUUGCAG against TMEM120B was seed-corrected z-score 0.4824. Result for UACGGAAUGACAAGGUCAC against RGS5 was seed-corrected z-score -0.495. For UAAACUUCUGUCCAGAACC against BMS1P5 the result was seed-corrected z-score -0.2414. Result for UGGAUAAACGGAAGAAUGC against ILF3 was seed-corrected z-score 0.1889.

UAGCAGAUGAAUAUGGGCC against STYX read seed-corrected z-score 0.6049. With UGUUGGUGAGGUAAAUUCC against VASH1 the assay gave seed-corrected z-score 0.5804. Result for UAUUUCGAACCCUUCAAUG against MTM1 was seed-corrected z-score -0.348. With AAACAGCUCCUUUAAUGAC against CD3EAP the assay gave seed-corrected z-score 1.197. With UAAAACUUGAUGACCUCUG against SPEF1 the assay gave seed-corrected z-score 0.3476. Result for AAAUCCGUCACUAUUCACC against COG3 was seed-corrected z-score -0.2577. With UAAGGGUCACAUCAGAGCC against KIRREL the assay gave seed-corrected z-score -0.1504.

UUUGAUGCAAUCAUCAAAG against KIDINS220 gave seed-corrected z-score 0.8109. AAUGUUAUCAUUGAAUAGG against RSPRY1 read seed-corrected z-score 0.1499. CAUGGUAGUCAACUGGUUG against FOXB1 gave seed-corrected z-score -0.807. Result for UCUCUUUUCAAAGACAGUC against HESX1 was seed-corrected z-score -1.364. UAGCAUUCAAUACCUCUUC against SRP54 read seed-corrected z-score 0.005323. For AAAUUGCUGUGGGAUAUGG against CACNB4 the result was seed-corrected z-score -0.5352.

The first 2 entries again:

| strand | target gene | seed-corrected z-score |
|---|---|---|
| `AUGUUUUUCCUUGAGCCUG` | DEFA1 | -1.24 |
| `AAUAUCUUCAGGGCAGUUC` | ERO1B | 1.048 |